These are yes or no findings as the source states them, for the method shown. Sequences can lack the tags named with a protein.
Columns and labels:
Test in all cases: GST pull-down, electrophoresis and autoradiography
[1] = target: GST fusion of the DC fragment of Drosophila Dvl (Drosophila)
[2] = target: GST fusion of the DN fragment of Drosophila Dvl (Drosophila)
[3] = target: GST fusion of the PDZAN fragment of Drosophila Dvl (Drosophila)

Measured: binding

B1: Myc-tagged mNkd protein, in vitro translated (protein, not shown: small tags and cut ends)
chain: MGKLHSKPAAVCKRRESPEGDSFAVSAAWARKGIEEWIGRQRCPGSVSGPRQLRLAGTVGRGTRELVGDTSREALGEEDEDDFPLEVALPPEKIDSLGSGDEKRMERLSEPGQASKKQLKFEELQCDVSVEEDSRQEWTFTLYDFDNNGKVTREDITSLLHTIYEVVDSSVNHSPTSSKTLRVKLTVAPDGSQSKRSVLFNHTDLQSTRPRADTKPAEELRGWEKKQRAPLRFQGDSHLEQPDCYHHCVDENIERRNHYLDLAGIENYTSQFGPGSPSVAQKSELPPRISNPTRSRSHEPEAAHIPHRRPQGVDPGSFHLLDTPFAKASELQQRLRGTQDGSKHFVRSPKAQGKNMGMGHGARGARSKPPLVPTTHTVSPSAHLATSPALLPTLAPLGHKKHKHRAKESQASCRGLQGPLAAGGSTVMGREQVRELPAVVVYESQAGQAVQRHEHHHHHHEHHHHYHHFYQP
modifications: labelled with 35S-methionine
no binding: all assays above

— patent US20020061552A1 (published 2002)
